{"source": "PubChem BioAssay AID1224826 (NIAID, 2016)", "assay": "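Regulators of Tlr4 signalling leading to Tnf-alpha expression in macrophages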 (primary screen)", "system": "RAW264.7 G9 macrophages from mouse bearing reporters for p65 (GFP) and the Tnf promoter (mCherry)", "knock-down reagent": "siRNA pool against mouse genes, 100 nM", "time to read-out": "16 h of LPS stimulation, after 2 days of siRNA transfection", "conditions": "bacterial lipopolysaccharide (Salmonella minnesota R595), 10 ng/ml", "detection": "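Imaged Tnf reporter mCherry in nuclei, minus background, normalised per plate to the median and expressed as robust z-scores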", "direction": "Tnf reporter robust z-score: higher = stronger Tnf promoter reporter signal after LPS", "active means": "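Called active when robust z-score is at most -1.3, matching the median of the Tlr4 knock-down control, or over 3; control wells and wells with under 50 cells never active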", "calls": "active = Tnf reporter clearly lowered or raised; inactive = no clear change in Tnf reporter", "note": "In all, the deposit lists about 17,000 reagents; below is a part drawn at random. About 1,110 of them (6.6%) were called active. 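Active means lowered or raised reporter signal; replicate intensities are raw and not normalised per plate.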 Not all columns of the deposit are shown."}
{"gene knocked down": "Srms", "fewer than 50 cells in well": "fewer than 50 cells per well; well left out of calls", "Call": "inactive"}
{"gene knocked down": "Prmt8", "Tnf reporter robust z-score": 1.03, "fewer than 50 cells in well": "enough cells in well", "Call": "inactive"}
{"gene knocked down": "Amd2", "Tnf reporter robust z-score": -1.22, "fewer than 50 cells in well": "enough cells in well", "Call": "inactive"}
{"gene knocked down": "Pdpk1", "Tnf reporter robust z-score": 0.3, "fewer than 50 cells in well": "enough cells in well", "Call": "inactive"}
{"gene knocked down": "Rit1", "Tnf reporter robust z-score": -0.64, "fewer than 50 cells in well": "enough cells in well", "Call": "inactive"}
{"gene knocked down": "Itih2", "Tnf reporter robust z-score": -1.11, "fewer than 50 cells in well": "enough cells in well", "Call": "inactive"}
{"gene knocked down": "Snapc2", "Tnf reporter robust z-score": -0.31, "fewer than 50 cells in well": "enough cells in well", "Call": "inactive"}
{"gene knocked down": "Ppp3r2", "Tnf reporter robust z-score": 0.66, "fewer than 50 cells in well": "enough cells in well", "Call": "inactive"}
{"gene knocked down": "Gbx2", "Tnf reporter robust z-score": 0.68, "fewer than 50 cells in well": "enough cells in well", "Call": "inactive"}
{"gene knocked down": "Tas2r108", "Tnf reporter robust z-score": -0.56, "fewer than 50 cells in well": "enough cells in well", "Call": "inactive"}
{"gene knocked down": "Kirrel3", "fewer than 50 cells in well": "fewer than 50 cells per well; well left out of calls", "Call": "inactive"}
{"gene knocked down": "Tmub1", "fewer than 50 cells in well": "fewer than 50 cells per well; well left out of calls", "Call": "inactive"}
{"gene knocked down": "Kdm3b", "Tnf reporter robust z-score": 0.63, "fewer than 50 cells in well": "enough cells in well", "Call": "inactive"}
{"gene knocked down": "Ncaph2", "Tnf reporter robust z-score": -1.02, "fewer than 50 cells in well": "enough cells in well", "Call": "inactive"}
{"gene knocked down": "Slc24a2", "Tnf reporter robust z-score": 1.25, "fewer than 50 cells in well": "enough cells in well", "Call": "inactive"}
{"gene knocked down": "Haghl", "Tnf reporter robust z-score": -0.02, "fewer than 50 cells in well": "enough cells in well", "Call": "inactive"}
{"gene knocked down": "Wipi1", "Tnf reporter robust z-score": -0.39, "fewer than 50 cells in well": "enough cells in well", "Call": "inactive"}
{"gene knocked down": "Adi1", "Tnf reporter robust z-score": -0.61, "fewer than 50 cells in well": "enough cells in well", "Call": "inactive"}
{"gene knocked down": "Rps10", "fewer than 50 cells in well": "fewer than 50 cells per well; well left out of calls", "Call": "inactive"}
{"gene knocked down": "Zfp687", "fewer than 50 cells in well": "fewer than 50 cells per well; well left out of calls", "Call": "inactive"}
{"gene knocked down": "Slk", "fewer than 50 cells in well": "fewer than 50 cells per well; well left out of calls", "Call": "inactive"}
